Experimental data reported in PMC7827474, “DnaJ Proteins Regulate WUS Expression in Shoot Apical Meristem of Arabidopsis”.

Tests used:
[1] = target: T1, MBP:WUS (Arabidopsis thaliana) (UniProt Q9SB92); assay: EMSA; conditions: EMSA: 10 mM HEPES pH 7.8, 20 mM KCl, 1 mM MgCl2, 7.5% glycerol, 0.5% Triton-100, 300 ng carrier DNA, 0.02% BSA, 10 uL, 22 C, 30 min; recombinant protein; protein details: MBP
T1 sequence (looked up, limits assumed): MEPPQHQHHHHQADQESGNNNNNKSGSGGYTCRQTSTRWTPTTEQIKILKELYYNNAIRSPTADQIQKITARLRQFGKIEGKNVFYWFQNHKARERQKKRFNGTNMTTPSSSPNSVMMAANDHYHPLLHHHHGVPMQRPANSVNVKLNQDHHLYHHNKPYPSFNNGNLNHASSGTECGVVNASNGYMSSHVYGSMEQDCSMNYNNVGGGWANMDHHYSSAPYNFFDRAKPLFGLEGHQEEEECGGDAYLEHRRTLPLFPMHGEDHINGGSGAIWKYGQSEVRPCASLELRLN

MBP:WUS + MBP:SDJ1 = assay: EMSA; conditions: more efficient than WUS alone; EMSA: 10 mM HEPES pH 7.8, 20 mM KCl, 1 mM MgCl2, 7.5% glycerol, 0.5% Triton-100, 300 ng carrier DNA, 0.02% BSA, 10 uL, 22 C, 30 min; recombinant protein; protein details: MBP,MBP

Row | Sequence | binding result [1] | binding result (MBP:WUS + MBP:SDJ1)
1 | CTAGAATGAACCCCAAAAAAAGTGAAAACCGTTTGATCATAA (double strand) [WUS mutant probe (pWUStu, TAAT to CCCC)] | no binding | 
2 | CTAGAATGAATAATAAAAAAAGTGAAAACCGTTTGATCATAA (double strand) [WUS promoter probe (pWUS)] |  | binds

The exact form of at least one protein or probe is not confirmed. For some assays here: No signal at the amounts used counts as a negative. For some assays here: Protein sequences can lack the tags named with them.
